Structures can show the parent of a compound that is named as a salt. Some of the results follow. Most entries show no effect beyond the scatter of the controls.
Tests used:
Settings in all cases: 5 µM; treatment: days 7-14 after plating, readout day 21
[1] = tested on: hPSC-derived cortical neurons (WA09); assay: nucleus area z-score vs screen plate; higher = larger nuclei (more mature)
[2] = tested on: hPSC-derived cortical neurons (WA09); assay: total neurite length per nucleus (MAP2) z-score; higher = more neurite growth
[3] = tested on: hPSC-derived cortical neurons (WA09); assay: nucleus roundness z-score vs screen plate; higher = rounder nuclei (more mature)
[4] = tested on: hPSC-derived cortical neurons (WA09); assay: KCl-induced FOS+/EGR-1+ double-positive nuclei fraction z-score (KCl minus unstimulated); higher = stronger activity-induced IEG response

| Compound | nucleus area z-score [1] | total neurite length per nucleus (z-score) [2] | nucleus roundness z-score [3] | KCl-induced FOS+/EGR-1+ double-positive nuclei fraction z-score [4] |
| --- | --- | --- | --- | --- |
| Cc1cn([C@H]2O[C@@H](CO)[C@H](O)[C@H]2F)c(=O)[nH]c1=O [Clevudine] | 0.165 | 0.0205 | 1.03 | 0.836 |
| N[C@H]1CC[C@H](N[C@@H]2C[C@H]2c2ccccc2)CC1 | 1.18 | -0.169 | -0.659 | 1.5 |
| C=C1CC[C@H](O)C/C1=C/C=C1\CCC[C@]2(C)[C@@H]([C@H](C)CCCC(C)(C)O)CC[C@@H]12 [Calcifediol] | 0.734 | 0.453 | 1.02 | 2.42 |
| C=CCN1CCCC1CNC(=O)c1cc2nn[nH]c2cc1OC (configuration not stated) [Alizapride HCl] | 0.179 | -1.55 | -0.744 | -2.62 |
| CNS(=O)(=O)Nc1nccc(Cc2c(C)c3ccc(Oc4ncccn4)cc3oc2=O)c1F | 1.38 | 0.847 | 0.959 | 0.0432 |
| CNC(=O)c1ccccc1Nc1cc(Nc2ccc(N3CCOCC3)cc2OC)ncc1C(F)(F)F | -4.35 | -2.87 | -2.16 | -1.49 |
| c1ccc(CC2=NCCN2)cc1 [Tolazoline HCl] | 0.154 | 0.375 | -1 | 4.09 |
| COc1ccc(C(=O)c2ccccc2O)c(O)c1 [2,2_-Dihydroxy-4-methoxybenzophenone] | 0.437 | 0.744 | 0.859 | 0.649 |
| Fc1ccc2[nH]ccc2c1-c1nc(N2CCOCC2)c2sc(CN3CCN(CC4CC4)CC3)cc2n1 | -0.2 | -0.052 | -1.42 | 0.0703 |
| O=C(O)c1cc2cccc([N+](=O)[O-])c2[nH]1 | 0.474 | -0.0354 | 0.315 | -0.623 |
| N#C[C@@H]1C[C@@H]2C[C@@H]2N1C(=O)[C@@H](N)C12CC3CC(CC(O)(C3)C1)C2 [Saxagliptin hydrate] | -0.216 | -0.0145 | 0.451 | 0.619 |
| CC1(C)CC[C@]2(NC(=O)C(C)(F)F)CC[C@]3(C)[C@H](C(=O)C=C4[C@@]5(C)C=C(C#N)C(=O)C(C)(C)[C@@H]5CC[C@]43C)[C@@H]2C1 [Omaveloxolone (RTA-408)] | -5.89 | -1.97 | -1.58 | -0.0842 |
| O=[N+]([O-])c1ccc(Nc2nc(N3CCOCC3)nc(N3CCOCC3)n2)cc1 | 0.114 | -0.982 | -1.57 | 2.48 |
| C[C@@H](c1ncncc1F)[C@](O)(Cn1cncn1)c1ccc(F)cc1F [Voriconazole] | 0.128 | 0.735 | 0.729 | 0.0346 |
| CN(C)[C@@H]1C(O)=C(C(N)=O)C(=O)[C@@]2(O)C(O)=C3C(=O)c4c(O)cccc4[C@@](C)(O)[C@H]3[C@H](O)[C@@H]12 [Oxytetracycline (Terramycin)] | 0.446 | -0.728 | -1.38 | -0.966 |
| CCC(=O)O[C@]1(C(=O)CCl)[C@@H](C)C[C@H]2[C@@H]3C[C@H](F)C4=CC(=O)C=C[C@]4(C)[C@@]3(F)[C@@H](O)C[C@@]21C [Halobetasol Propionate] | 0.798 | -0.564 | -1.12 | -1.62 |
| CCn1cc(-c2cccc(C(F)(F)F)c2)c2sc(C(=N)NC3CCS(=O)(=O)CC3)cc2c1=O | -1.55 | -1.37 | -0.411 | -0.565 |
| CCC(=O)NS(=O)(=O)c1ccc(-c2c(-c3ccccc3)noc2C)cc1 [Parecoxib] | -0.441 | -0.0383 | -0.481 | 0.0864 |
| CC[C@@H]1C(=O)OC[C@@H]1Cc1cncn1C [Pilocarpine HCl] | -0.179 | -0.582 | -1.22 | -0.421 |
| COc1ccc(O)cc1 [Mequinol] | -0.0196 | -0.118 | 0.0394 | -0.731 |
| CC(=O)OCC(CCn1cnc2cnc(N)nc21)COC(C)=O [Famciclovir] | 0.217 | 0.896 | 0.654 | 2.38 |
| CC[C@H]1OC(=O)C[C@@H](O)[C@H](C)[C@@H](O[C@@H]2O[C@H](C)[C@@H](O[C@H]3C[C@@](C)(O)[C@@H](O)[C@H](C)O3)[C@H](N(C)C)[C@H]2O)[C@@H](CC=O)C[C@@H](C)C(=O)/C=C/C(C)=C/[C@@H]1CO[C@@H]1O[C@H](C)[C@@H](O)[C@@H](OC)[C@H]1OC [Tylosin tartrate] | 0.264 | -0.37 | -0.00267 | 0.059 |
| O=[N+]([O-])c1ccc(O)c2ncccc12 [Nitroxoline] | 0.234 | 0.164 | 0.435 | -0.365 |
| C=CC(=O)N1CCC(Oc2cc3c(Nc4ccc(Cl)c(Cl)c4F)ncnc3cc2OC)CC1 [Poziotinib (HM781-36B)] | 0.703 | -0.319 | -0.705 | -0.775 |
| Cc1ccc(C)c(OCCCC(C)(C)C(=O)O)c1 [Gemfibrozil] | 1.15 | -0.312 | -0.765 | 0.111 |
| CC1(C)[C@@H](O)CC[C@]2(C)[C@H]3C(=O)C=C4[C@@H]5C[C@@](C)(C(=O)O)CC[C@]5(C)CC[C@@]4(C)[C@]3(C)CC[C@@H]12 [Enoxolone] | -0.745 | 0.396 | 0.0248 | -0.245 |
| CCC1(c2c[nH]cn2)Cc2ccccc2C1 [Atipamezole hydrochloride] | -2.73 | -0.754 | -2.6 | -1.48 |

Gathered by group, the compounds so far containing a thiophene ring, fused or not

| Compound | nucleus area z-score [1] | total neurite length per nucleus (z-score) [2] | nucleus roundness z-score [3] | KCl-induced FOS+/EGR-1+ double-positive nuclei fraction z-score [4] |
| --- | --- | --- | --- | --- |
| Fc1ccc2[nH]ccc2c1-c1nc(N2CCOCC2)c2sc(CN3CCN(CC4CC4)CC3)cc2n1 | -0.2 | -0.052 | -1.42 | 0.0703 |
| CCn1cc(-c2cccc(C(F)(F)F)c2)c2sc(C(=N)NC3CCS(=O)(=O)CC3)cc2c1=O | -1.55 | -1.37 | -0.411 | -0.565 |

Further entries.

| Compound | nucleus area z-score [1] | total neurite length per nucleus (z-score) [2] | nucleus roundness z-score [3] | KCl-induced FOS+/EGR-1+ double-positive nuclei fraction z-score [4] |
| --- | --- | --- | --- | --- |
| C#C[C@]1(O)CC[C@H]2[C@@H]3CCc4cc(OC)ccc4[C@H]3CC[C@@]21C [Mestranol] | -0.276 | 0.462 | 1.1 | -0.744 |
| CC(C)c1nc(N(C)S(C)(=O)=O)nc(-c2ccc(F)cc2)c1/C=C/[C@@H](O)C[C@@H](O)CC(=O)O [Rosuvastatin Calcium] | -3.07 | -2.18 | -1.63 | -0.991 |
| C[C@@H]1[C@H](O)[C@@H](C)/C=C/C=C/C=C/C=C/C=C/C=C/C=C/[C@H](O[C@@H]2O[C@H](C)[C@@H](O)[C@H](N)[C@@H]2O)C[C@@H]2O[C@](O)(C[C@@H](O)C[C@@H](O)[C@H](O)CC[C@@H](O)C[C@@H](O)CC(=O)O[C@H]1C)C[C@H](O)[C@H]2C(=O)O [Amphotericin B] | 0.142 | 0.396 | 0.152 | 0.649 |
| Cc1cn[nH]c1 [Fomepizole] | 2.01 | -1.41 | -0.894 | 0.19 |
| Cc1ccc(C(=O)Nc2ccc(CN3CCN(C)CC3)c(C(F)(F)F)c2)cc1C#Cc1cnc2cccnn12 | -6.97 | -2.66 | -2.67 | 0.607 |
| CCOc1ccc(Cc2cc([C@@H]3O[C@H](SC)[C@@H](O)[C@H](O)[C@H]3O)ccc2Cl)cc1 [Sotagliflozin (LX4211)] | 1.2 | 0.284 | -0.373 | -0.831 |
| COc1cc(O)c(C(=O)c2ccccc2)cc1S(=O)(=O)O [Sulisobenzone] | 1.79 | -0.479 | -0.449 | 0.579 |
| CCOC(=O)c1ccc(C#Cc2ccc3c(c2)C(C)(C)CCS3)nc1 [Tazarotene] | 0.37 | -0.00521 | -0.579 | -0.0922 |
| C[C@@H]1O[C@@H](OC[C@H]2O[C@@H](Oc3c(-c4ccc(O)c(O)c4)oc4cc(O)cc(O)c4c3=O)[C@H](O)[C@@H](O)[C@@H]2O)[C@H](O)[C@H](O)[C@H]1O [Rutin] | -0.267 | 0.41 | 0.199 | 0.779 |
| CCOC(=O)c1cnc2ccc(-c3cncc(NS(=O)(=O)c4ccccc4)c3)cn12 | -0.0568 | 1.2 | 0.599 | 0.14 |
| C[C@@]1(c2cc(-c3cncnc3)c(F)cc2F)CCSC(N)=N1 | 0.471 | 1.32 | 1.65 | 0.921 |
| CCCCCCCN(CC)CCCC(O)c1ccc(NS(C)(=O)=O)cc1 (configuration not stated) [Ibutilide Fumarate] | 0.98 | -0.293 | -0.136 | -1.46 |
| O=c1c(-c2ccc(O)cc2)coc2c([C@@H]3O[C@H](CO)[C@@H](O)[C@H](O)[C@H]3O)c(O)ccc12 [Puerarin] | -0.45 | 0.614 | -0.125 | 0.667 |
| Cc1cccc(-c2[nH]ncc2-c2ccc3ncccc3n2)n1 | -0.422 | -1.36 | -2.23 | -0.603 |
| Cc1[nH]c2ccccc2c1CCNC(=O)c1cccs1 | 0.288 | 0.59 | 1.33 | 2.82 |
| Clc1ccc(COC(Cn2ccnc2)c2ccc(Cl)cc2Cl)c(Cl)c1 (configuration not stated) [Miconazole Nitrate] | -1.56 | 0.0296 | 0.298 | 1.17 |
| COc1ccc2c(c1)c(CC(=O)O)c(C)n2C(=O)c1ccc(Cl)cc1 [Indomethacin] | 0.296 | 1.22 | 1.35 | 1.13 |
| Cc1c(F)cc(C(=O)NC2CC2)cc1-c1ccc(C(=O)NCC(C)(C)C)cn1 | 2.56 | 0.614 | -0.15 | 0.318 |
| CO/N=C(\C(=O)N[C@@H]1C(=O)N2C(C(=O)O)=C(CSC(=O)c3ccco3)CS[C@H]12)c1csc(N)n1 [Ceftiofur HCl] | 1.14 | -0.754 | 0.37 | -0.454 |
| O=C1CCc2cc(OCCCCc3nnnn3C3CCCCC3)ccc2N1 [Cilostazol] | 0.887 | -0.593 | -0.435 | 1.45 |
| CC[C@@H]([C@H](C)O)n1ncn(-c2ccc(N3CCN(c4ccc(OC[C@@H]5CO[C@@](Cn6cncn6)(c6ccc(F)cc6F)C5)cc4)CC3)cc2)c1=O [Posaconazole] | 0.0596 | 0.249 | 0.884 | -0.582 |
| O=C1[C@H](CC[C@H](O)c2ccc(F)cc2)[C@@H](c2ccc(O)cc2)N1c1ccc(F)cc1 [Ezetimibe] | -0.0199 | 0.576 | 1.44 | 0.102 |
| c1cc(-c2cnn3cc(-c4ccc(OCCN5CCCCC5)cc4)cnc23)ccn1 [Dorsomorphin (Compound C)] | 0.283 | 0.0887 | -0.805 | -0.402 |
| CNC(=O)c1ccc(Nc2ncc(C(F)(F)F)c(NCc3nccnc3N(C)S(C)(=O)=O)n2)cc1 | -0.387 | 1.09 | -0.447 | 0.944 |
| O=C(O)c1cccc(-c2noc(-c3ccccc3F)n2)c1 [Ataluren (PTC124)] | 0.384 | 1.08 | 0.326 | 0.46 |
| CN1CCN(C2=Nc3cc(Cl)ccc3Nc3ccccc32)CC1 [Clozapine] | 0.798 | 0.577 | 1.06 | 1.23 |
